Results from publication PMC5515849.
These are yes or no findings as the source states them, for the method shown. In cells and extracts the contact can be indirect. Some results given as binding are weak or reduced against the parent protein; the word gives no strength.

Biological target: GST-RBD (amino acids 1-149 of Raf-1, Ras-binding domain, fused to GST) (UniProt P04049)
Assay: pull-down; yeast whole cell extract incubated with GST-RBD-bound glutathione beads for 4 h, washed, eluted with sample buffer, immunoblot with anti-Ras2; cells grown in YPD with or without caspofungin (2 h), or glucose-starved (SC-D, 2 h); ras2Δ strain as control; only the target purified

B1: Ras2 (small GTPase), active GTP-bound form (Ras2-GTP) (protein, UniProt P01120 1-322)
chain: MPLNKSNIREYKLVVVGGGGVGKSALTIQLTQSHFVDEYDPTIEDSYRKQVVIDDEVSILDILDTAGQEEYSAMREQYMRNGEGFLLVYSITSKSSLDELMTYYQQILRVKDTDYVPIVVVGNKSDLENEKQVSYQDGLNMAKQMNAPFLETSAKQAINVEEAFYTLARLVRDEGGKYNKTLTENDNSKQTSQDTKGSGANSVPRNSGGHRKMSNAANGKNVNSSTTVVNARNASIESKTGLAGNQATNGKTQTDRTNIDNSTGQAGQANAQSANTVNNRVNNNSKAGQVSNAKQARKQQAAPGGNTSEASKSGSGGCCIIS
  binding: binds
